Laboratory results as given in article PMC6117607.
Results are given in words; binding and its absence hold for the method and conditions named. Binding seen in cells or lysates may run through a third protein. Some entries that bind do so weakly or less than the wild type. Tags and fused reporters may be left off the sequences shown.

Biological target: T1, HA-SNX5 (UniProt Q9Y5X3)
T1 sequence: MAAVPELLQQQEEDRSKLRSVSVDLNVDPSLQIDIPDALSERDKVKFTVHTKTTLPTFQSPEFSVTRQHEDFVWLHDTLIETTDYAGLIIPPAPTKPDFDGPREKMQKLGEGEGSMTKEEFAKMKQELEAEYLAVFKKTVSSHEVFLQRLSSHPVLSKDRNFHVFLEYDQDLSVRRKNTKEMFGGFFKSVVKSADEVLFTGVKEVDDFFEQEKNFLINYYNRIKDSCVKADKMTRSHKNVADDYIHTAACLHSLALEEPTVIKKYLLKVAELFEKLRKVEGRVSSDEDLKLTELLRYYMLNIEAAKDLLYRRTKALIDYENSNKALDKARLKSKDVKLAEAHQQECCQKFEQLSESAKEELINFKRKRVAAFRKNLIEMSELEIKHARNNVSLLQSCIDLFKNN
Test: co-IP; COS7 cells co-expressing HA-SNX5 and Flag-hCI-M6PR-tail; NP-40 lysis buffer (150 mmol/L NaCl, 50 mmol/L Tris-HCl pH 8.0, 5 mmol/L EDTA, 0.5% NP-40); immunoprecipitated with anti-HA on protein A/G agarose, 2 hours at 4 °C; blotted with anti-Flag

- binding: binds
B1: Flag-hCI-M6PR-tail (domain or fragment, UniProt P11717 2328-2491)
chain: KKERRETVISKLTTCCRRSSNVSYKYSKVNKEEETDENETEWLMEEIQLPPPRQGKEGQENGHITTKSVKALSSLHGDDQDSEDEVLTIPEVKVHSGRGAGAESSHPVRNAQSNALQEREDDRVGLVRGEKARKGKSSSAQQKTVSSTKLVSFHDDSDEDLLHI
